# Measurements from patent publication US5955421A (priority 1990, dated 1999).
# Experiment: general procedure: Fmoc solid-phase peptide synthesis; benzhydrylamine resin (BHA), p-Me-BHA, chloromethylated or hydroxymethylated resin; symmetrical anhydrides or diisopropylcarbodiimide; Opfp esters; alternatively BO
# Details: whole synthesis, TFA salts, purified as acetate salts
row,Substance,final HPLC purity
1,D-Thr-D-Mrp-Ala-Trp-D-Phe-Lys-NH2,98.0%
2,D-Thr-D-Mrp-Ala-Trp-NH2,97.5%
3,PEPTIDE1{[GAB].[D-Mrp].[D-bNal].F.K.[am]}$$$$V2.0,99.0%
4,PEPTIDE1{[GAB].[D-Mrp].[D-Mrp].[D-Mrp].K.[am]}$$$$V2.0,99.0%
5,PEPTIDE1{[INIP].[D-Mrp].[dW].F.K.[am]}$$$$V2.0,99.0%
6,PEPTIDE1{[GAB].[D-Mrp].[D-Mrp].[Mrp].K.[am]}$$$$V2.0,98.0%
7,His-D-Mrp-Ala-Phe-D-Trp-Lys-NH2,22 98.6%
8,Tyr-His-D-Mrp-Ala-Trp-D-Phe-Lys-NH2,96.8%
9,4-(aminomethyl)cyclohexanecarbonyl-D-Mrp-D-Trp-Phe-Lys-NH^2,99.0%
10,4-(aminomethyl)cyclohexanecarbonyl-D-Mrp-D-β-Nal-Phe-Lys-NH2,96.9%
11,D-Ala-D-Mrp-Ala-Trp-D-Phe-Lys-NH2,99.3%
12,PEPTIDE1{[INIP].[D-Mrp].[D-bNal].F.K.[am]}$$$$V2.0,96.5%
13,IMA-D-Mrp-D-Trp-Phe-Lys-NH2,99.2%
14,PEPTIDE1{[GAB].[D-Mrp].[D-Mrp].F.K.[am]}$$$$V2.0,98.0%
15,PEPTIDE1{H.[D-Mrp].A.W.[am]}$$$$V2.0,99.8%
16,IMA-D-Mrp-D-β-Nal-Phe-Lys-NH2,97.3%

# Same assay, conditions: whole synthesis, acetate salt
row,Substance,final HPLC purity [%]
1,PEPTIDE1{[GAB].[D-Mrp].[dW].F.K.[am]}$$$$V2.0,98

# HELM strings list residues between dots; [ac] is acetyl, [am] amide, other brackets name non-standard units.
